These are yes or no findings as the source states them, for the method shown. Binding seen in cells or lysates may run through a third protein. Some results given as binding are weak or reduced against the parent protein; the word gives no strength.
Biological target: HIF-1α (human (endogenous in HUVEC; species of the fibroblasts not stated)) (UniProt Q16665)
Test: co-IP; lysates of HUVECs and fibroblasts of the Ctrl, MGO (800 μM MGO) and INS (800 μM MGO and 10^-6 M insulin) groups; which protein was precipitated is not told; no co-IP method is described

Sequences of proteins named here, by UniProt entry; tags and fusion partners are left off.
UniProt Q16665: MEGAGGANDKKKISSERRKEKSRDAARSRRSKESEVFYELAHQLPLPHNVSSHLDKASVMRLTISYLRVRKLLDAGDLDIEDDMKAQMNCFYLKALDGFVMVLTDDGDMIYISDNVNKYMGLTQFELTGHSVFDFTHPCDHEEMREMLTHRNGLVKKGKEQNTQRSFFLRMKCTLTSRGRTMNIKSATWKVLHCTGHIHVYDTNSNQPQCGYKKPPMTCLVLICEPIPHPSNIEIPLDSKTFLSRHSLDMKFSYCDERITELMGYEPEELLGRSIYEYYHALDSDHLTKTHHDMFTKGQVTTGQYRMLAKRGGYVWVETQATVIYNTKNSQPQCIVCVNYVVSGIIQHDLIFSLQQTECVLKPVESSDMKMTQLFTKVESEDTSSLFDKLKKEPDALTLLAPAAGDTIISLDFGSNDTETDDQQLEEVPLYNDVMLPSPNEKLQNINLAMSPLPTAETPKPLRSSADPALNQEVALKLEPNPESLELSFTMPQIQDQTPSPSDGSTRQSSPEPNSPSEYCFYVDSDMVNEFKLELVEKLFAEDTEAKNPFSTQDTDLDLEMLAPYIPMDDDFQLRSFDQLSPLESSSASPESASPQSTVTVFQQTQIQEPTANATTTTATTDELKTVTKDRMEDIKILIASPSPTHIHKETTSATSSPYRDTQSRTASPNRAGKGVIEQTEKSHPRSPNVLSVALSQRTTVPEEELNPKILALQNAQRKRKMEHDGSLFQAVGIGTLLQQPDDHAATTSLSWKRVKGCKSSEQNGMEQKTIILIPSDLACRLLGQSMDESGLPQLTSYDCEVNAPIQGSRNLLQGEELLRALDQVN
UniProt Q92793: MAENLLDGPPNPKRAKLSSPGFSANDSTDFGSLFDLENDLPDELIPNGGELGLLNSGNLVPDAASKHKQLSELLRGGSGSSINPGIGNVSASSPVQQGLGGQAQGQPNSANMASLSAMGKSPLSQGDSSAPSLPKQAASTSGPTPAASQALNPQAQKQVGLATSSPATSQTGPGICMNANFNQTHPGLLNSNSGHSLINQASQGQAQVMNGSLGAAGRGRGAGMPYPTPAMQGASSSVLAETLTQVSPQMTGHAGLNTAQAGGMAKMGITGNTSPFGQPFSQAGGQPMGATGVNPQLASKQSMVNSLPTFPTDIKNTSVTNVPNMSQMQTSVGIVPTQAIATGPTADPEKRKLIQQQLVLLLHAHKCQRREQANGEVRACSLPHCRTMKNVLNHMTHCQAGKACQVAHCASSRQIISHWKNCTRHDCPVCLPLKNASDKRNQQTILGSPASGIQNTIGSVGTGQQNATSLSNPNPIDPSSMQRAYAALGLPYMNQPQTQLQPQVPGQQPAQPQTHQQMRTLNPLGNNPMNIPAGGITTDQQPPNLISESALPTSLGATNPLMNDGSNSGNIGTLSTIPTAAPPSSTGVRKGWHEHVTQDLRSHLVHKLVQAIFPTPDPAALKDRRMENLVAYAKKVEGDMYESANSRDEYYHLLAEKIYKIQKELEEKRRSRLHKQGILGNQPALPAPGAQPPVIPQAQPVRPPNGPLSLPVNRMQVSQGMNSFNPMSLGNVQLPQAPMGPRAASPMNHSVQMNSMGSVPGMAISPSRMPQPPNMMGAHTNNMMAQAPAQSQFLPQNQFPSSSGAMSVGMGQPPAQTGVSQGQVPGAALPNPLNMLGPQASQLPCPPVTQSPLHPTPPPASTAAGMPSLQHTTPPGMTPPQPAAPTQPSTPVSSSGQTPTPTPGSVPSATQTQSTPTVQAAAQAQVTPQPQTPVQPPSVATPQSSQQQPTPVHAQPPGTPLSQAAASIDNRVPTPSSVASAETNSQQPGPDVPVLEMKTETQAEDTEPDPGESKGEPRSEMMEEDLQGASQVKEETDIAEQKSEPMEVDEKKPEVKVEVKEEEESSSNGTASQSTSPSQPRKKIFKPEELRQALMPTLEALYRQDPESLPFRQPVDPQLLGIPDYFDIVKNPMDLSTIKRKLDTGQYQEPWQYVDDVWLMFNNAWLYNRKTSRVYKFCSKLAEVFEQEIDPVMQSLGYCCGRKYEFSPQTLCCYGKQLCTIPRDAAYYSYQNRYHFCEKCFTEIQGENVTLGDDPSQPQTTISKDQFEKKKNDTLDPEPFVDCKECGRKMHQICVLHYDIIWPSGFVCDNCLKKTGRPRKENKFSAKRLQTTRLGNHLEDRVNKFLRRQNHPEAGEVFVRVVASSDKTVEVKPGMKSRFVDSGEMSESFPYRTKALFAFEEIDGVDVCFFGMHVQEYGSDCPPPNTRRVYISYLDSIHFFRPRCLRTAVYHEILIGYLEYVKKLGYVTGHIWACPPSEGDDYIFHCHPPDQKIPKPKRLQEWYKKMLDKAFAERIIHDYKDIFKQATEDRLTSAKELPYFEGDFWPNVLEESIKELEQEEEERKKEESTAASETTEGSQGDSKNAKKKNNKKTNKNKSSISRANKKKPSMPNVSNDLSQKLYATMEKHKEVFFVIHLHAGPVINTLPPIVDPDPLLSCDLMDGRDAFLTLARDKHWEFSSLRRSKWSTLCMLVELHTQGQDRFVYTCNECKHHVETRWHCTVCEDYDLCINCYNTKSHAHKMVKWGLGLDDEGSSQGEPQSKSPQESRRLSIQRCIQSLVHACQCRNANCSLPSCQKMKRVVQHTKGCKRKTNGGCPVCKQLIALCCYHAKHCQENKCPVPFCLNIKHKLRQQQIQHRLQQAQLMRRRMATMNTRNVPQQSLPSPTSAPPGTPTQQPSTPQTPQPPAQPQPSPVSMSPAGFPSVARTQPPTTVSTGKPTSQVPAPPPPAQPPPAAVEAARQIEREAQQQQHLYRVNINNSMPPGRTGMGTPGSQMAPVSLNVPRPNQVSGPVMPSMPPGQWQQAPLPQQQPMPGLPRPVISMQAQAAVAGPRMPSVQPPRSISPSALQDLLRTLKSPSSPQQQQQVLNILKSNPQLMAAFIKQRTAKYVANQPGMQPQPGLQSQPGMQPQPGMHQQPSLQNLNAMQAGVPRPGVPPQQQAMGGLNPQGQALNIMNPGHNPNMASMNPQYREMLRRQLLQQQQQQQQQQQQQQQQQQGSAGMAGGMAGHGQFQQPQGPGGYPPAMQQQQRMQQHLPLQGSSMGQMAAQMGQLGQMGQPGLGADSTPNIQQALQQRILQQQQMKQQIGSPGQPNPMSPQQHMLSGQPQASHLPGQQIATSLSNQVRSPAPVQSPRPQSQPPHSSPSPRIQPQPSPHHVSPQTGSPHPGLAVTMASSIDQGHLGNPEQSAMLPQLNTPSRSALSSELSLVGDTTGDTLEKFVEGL

binding: binds
Substance: CBP (from UniProt Q92793 1-2442)
